For one substance, binding results are on record in patent publication US20230192896A1.

By UniProt entry, the sequences of proteins in these tests, tags left out. Where a name states a change or a piece, a line headed by the entry shows the natural chain unless it says otherwise. Residues count along the entry.
UniProt P00740: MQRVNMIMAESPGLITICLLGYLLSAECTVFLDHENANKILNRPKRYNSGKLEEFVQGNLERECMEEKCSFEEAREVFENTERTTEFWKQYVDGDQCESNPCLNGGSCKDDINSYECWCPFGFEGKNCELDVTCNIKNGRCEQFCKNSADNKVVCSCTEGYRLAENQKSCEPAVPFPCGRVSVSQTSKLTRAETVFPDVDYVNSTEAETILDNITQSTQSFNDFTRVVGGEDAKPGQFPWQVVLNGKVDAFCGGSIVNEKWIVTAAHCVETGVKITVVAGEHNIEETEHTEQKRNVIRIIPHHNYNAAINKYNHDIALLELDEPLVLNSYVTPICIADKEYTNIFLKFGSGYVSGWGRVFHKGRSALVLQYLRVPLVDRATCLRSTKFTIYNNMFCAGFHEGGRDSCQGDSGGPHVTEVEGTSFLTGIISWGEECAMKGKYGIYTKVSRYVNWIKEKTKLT
UniProt P01008, residues 33-464: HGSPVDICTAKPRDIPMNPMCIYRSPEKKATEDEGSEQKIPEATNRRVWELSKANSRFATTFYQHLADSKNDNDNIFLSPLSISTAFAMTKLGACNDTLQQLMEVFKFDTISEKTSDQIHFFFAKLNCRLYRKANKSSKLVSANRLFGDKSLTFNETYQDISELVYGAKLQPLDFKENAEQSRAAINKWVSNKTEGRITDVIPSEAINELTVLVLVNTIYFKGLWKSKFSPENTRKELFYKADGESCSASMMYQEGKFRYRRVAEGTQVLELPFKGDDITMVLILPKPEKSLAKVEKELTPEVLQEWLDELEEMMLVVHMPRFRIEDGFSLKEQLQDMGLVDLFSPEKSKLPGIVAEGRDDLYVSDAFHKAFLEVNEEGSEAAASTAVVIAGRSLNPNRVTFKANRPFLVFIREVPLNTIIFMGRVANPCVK

The test has as its target free FIXa (activated Factor IX) (human) (UniProt P00740). Kind of test: non-reducing SDS gel of 500 nM FIXa with 5000 nM ATIII.

Results are given in words; binding and its absence hold for the method and conditions named. Some entries that bind do so weakly or less than the wild type.

As for “Anti-thrombin III (ATIII) (from UniProt P01008 33-464)”, the binding result is “binds”.
